Percent effect of library compounds

By UniProt entry, the sequences of proteins in these tests, tags left out. Residues count along the entry.
UniProt P9WPC5, whole entry: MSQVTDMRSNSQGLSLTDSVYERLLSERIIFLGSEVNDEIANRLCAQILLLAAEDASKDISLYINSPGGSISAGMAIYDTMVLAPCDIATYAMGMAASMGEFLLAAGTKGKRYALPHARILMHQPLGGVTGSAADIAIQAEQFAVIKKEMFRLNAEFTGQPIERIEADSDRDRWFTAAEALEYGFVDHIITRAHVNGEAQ
UniProt P9WPC3, whole entry partner: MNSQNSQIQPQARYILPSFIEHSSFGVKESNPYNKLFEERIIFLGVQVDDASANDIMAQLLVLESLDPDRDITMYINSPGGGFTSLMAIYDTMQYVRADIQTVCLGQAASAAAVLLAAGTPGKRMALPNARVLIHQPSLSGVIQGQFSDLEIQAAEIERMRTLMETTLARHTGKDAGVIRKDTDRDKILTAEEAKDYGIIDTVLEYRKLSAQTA
UniProt I6X8D2, whole entry: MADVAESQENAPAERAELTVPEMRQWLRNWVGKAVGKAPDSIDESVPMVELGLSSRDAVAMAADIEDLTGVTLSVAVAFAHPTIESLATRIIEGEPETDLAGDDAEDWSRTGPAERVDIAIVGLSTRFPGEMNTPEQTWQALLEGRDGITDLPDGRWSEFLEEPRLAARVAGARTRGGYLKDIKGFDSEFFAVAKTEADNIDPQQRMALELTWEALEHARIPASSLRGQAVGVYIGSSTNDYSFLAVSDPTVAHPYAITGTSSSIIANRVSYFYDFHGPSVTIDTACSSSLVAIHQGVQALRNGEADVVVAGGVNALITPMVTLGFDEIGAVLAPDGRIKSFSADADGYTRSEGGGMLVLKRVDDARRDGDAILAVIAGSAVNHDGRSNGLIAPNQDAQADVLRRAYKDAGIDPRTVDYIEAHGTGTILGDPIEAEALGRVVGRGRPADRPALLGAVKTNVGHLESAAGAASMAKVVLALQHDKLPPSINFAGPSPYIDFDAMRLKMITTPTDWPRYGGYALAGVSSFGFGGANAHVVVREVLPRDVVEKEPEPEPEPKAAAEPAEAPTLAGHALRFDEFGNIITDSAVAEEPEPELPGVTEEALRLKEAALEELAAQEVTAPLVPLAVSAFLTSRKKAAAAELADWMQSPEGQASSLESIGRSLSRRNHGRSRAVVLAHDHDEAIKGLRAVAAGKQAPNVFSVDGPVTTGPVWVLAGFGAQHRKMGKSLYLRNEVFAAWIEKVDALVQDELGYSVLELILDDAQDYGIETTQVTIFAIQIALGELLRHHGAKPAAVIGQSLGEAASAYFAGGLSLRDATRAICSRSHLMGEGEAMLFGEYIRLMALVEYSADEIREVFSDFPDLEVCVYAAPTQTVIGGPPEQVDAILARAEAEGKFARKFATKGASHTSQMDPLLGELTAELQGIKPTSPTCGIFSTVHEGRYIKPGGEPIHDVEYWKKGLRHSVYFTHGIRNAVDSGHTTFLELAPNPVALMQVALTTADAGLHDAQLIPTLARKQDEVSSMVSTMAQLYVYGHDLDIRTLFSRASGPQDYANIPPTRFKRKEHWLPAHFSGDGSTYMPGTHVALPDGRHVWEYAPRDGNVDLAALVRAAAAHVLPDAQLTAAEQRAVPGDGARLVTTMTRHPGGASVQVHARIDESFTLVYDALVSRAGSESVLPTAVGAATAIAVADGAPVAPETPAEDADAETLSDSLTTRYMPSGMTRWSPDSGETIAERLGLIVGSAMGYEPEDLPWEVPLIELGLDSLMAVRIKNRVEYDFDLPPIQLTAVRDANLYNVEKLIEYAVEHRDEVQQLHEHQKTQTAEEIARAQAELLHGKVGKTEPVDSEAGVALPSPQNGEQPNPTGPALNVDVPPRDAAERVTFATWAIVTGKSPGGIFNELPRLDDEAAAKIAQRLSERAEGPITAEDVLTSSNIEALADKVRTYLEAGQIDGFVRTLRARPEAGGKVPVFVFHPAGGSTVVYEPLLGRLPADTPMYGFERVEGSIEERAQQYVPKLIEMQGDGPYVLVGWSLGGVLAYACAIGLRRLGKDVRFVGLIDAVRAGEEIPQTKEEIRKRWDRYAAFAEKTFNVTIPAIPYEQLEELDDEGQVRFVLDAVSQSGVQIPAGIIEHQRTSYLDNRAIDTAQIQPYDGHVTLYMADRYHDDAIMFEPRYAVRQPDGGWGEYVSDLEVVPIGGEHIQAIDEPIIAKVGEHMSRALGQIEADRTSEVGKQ
UniProt P9WNZ1, whole entry: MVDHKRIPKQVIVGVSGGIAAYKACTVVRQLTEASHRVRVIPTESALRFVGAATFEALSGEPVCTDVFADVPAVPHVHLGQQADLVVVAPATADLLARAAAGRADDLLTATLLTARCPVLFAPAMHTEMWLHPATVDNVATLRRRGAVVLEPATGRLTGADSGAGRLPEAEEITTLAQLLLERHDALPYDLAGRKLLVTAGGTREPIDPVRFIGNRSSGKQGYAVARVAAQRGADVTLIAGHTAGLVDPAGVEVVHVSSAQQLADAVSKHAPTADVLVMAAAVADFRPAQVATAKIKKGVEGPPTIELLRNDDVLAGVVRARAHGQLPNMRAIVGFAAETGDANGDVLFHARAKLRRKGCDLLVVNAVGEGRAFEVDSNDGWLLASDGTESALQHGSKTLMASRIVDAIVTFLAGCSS
UniProt A4I591, 1-473: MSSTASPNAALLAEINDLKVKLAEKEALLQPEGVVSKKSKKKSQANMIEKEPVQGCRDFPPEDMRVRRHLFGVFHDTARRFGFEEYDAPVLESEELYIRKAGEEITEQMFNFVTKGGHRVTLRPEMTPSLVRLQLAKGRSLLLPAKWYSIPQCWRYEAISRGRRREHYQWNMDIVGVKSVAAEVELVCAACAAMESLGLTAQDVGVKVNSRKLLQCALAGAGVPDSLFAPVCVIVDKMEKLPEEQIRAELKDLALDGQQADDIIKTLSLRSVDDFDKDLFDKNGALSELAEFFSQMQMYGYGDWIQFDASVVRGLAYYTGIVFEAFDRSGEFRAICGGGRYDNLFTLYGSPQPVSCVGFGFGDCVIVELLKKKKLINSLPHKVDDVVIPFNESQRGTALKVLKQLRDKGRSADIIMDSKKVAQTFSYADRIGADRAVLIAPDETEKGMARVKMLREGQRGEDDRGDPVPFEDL
UniProt Q4DA54, 1-478: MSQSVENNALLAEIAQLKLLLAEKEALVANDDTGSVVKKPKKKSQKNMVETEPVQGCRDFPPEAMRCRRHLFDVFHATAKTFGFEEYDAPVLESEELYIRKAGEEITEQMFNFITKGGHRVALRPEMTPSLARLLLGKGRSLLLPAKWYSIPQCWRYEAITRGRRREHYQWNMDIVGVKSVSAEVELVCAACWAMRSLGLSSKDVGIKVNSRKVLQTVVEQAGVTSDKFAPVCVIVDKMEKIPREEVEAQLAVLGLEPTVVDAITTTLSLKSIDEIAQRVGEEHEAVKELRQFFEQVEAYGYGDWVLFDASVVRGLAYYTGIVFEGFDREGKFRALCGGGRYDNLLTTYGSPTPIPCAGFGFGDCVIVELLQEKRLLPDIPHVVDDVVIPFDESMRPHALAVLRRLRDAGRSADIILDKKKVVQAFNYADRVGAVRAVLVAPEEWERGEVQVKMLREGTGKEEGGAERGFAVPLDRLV

Measurements from “University of Dundee, Small-Polar-MMV Screening Library” (2021), ChEMBL document CHEMBL3988442.

A: 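Protease assay of ClpP1P2, read by the AMC dye that it sets free. Target: ClpP1P2, Mycobacterium tuberculosis (UniProt P9WPC5 and UniProt P9WPC3). Concentration: 50 µM. Direction is inferred from only a few compounds that gave an IC50; most scored high, so higher reads as stronger inhibition. Most other retested compounds had strongly negative values. About 69,000 compounds were tested under these conditions; 0.015% (about 10) showed 50% or more at least once.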
B: 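Enzyme assay of the thioesterase domain of polyketide synthase 13; the read-out is not stated. Target: Polyketide synthase Pks13, Mycobacterium tuberculosis (UniProt I6X8D2). Concentration: 30 µM. Higher reads as stronger inhibition (inferred from which compounds were picked for retests). Size under these conditions: about 67,000 compounds, about 300 of them at 50% or above in at least one test.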
C: 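Coenzyme A biosynthesis protein CoaBC, Mycobacterium tuberculosis (UniProt P9WNZ1). Enzyme assay of CoaBC with a phosphate dye (Biomol Green) read at 650 nm. Tested at 30 µM. Direction is inferred from only a few compounds that gave an IC50; most scored high, so higher reads as stronger inhibition. Most strong results did not repeat in a second test. Of about 67,000 compounds tested this way, about 40 (0.06%) reached 50% or more in at least one test.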
D: 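Histidine-tRNA ligase, Leishmania infantum (UniProt A4I591). Enzyme assay of histidyl-tRNA synthetase; the read-out is not stated. Tested at 30 µM. Higher reads as stronger inhibition (inferred: compounds with an IC50 in retests scored well above the rest). The assay is labelled LdHisRS but filed under L. infantum. About 69,000 compounds were tested under these conditions; 0.6% (about 410) showed 50% or more at least once.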
E: 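Enzyme assay of histidyl-tRNA synthetase; the read-out is not stated. Target: Histidine-tRNA ligase, Trypanosoma cruzi CL Brener (UniProt Q4DA54). Tested at 30 µM. Higher reads as stronger inhibition (inferred: compounds with an IC50 in retests scored well above the rest). Size under these conditions: about 69,000 compounds, about 31 of them at 50% or above in at least one test.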

The filed quantity is “Percent Effect” (%). The controls that fix the scale are not given in the record; negative values are as filed. Compounds were drawn at random from those tested, without regard to their results. Two or more numbers in one place are separate tests of the same structure; such repeats can differ widely. A dash means the value is not listed here; it may have been measured.

structure,A,B,C,D,E
Cc1ccccc1CC(=O)N(C)C1CCCC1,2.871,-10.32,3.259,14.86,3.396
Cc1cccc(CNC(=O)Nc2cc(C(F)(F)F)c[nH]c2=O)n1,-11.15,-20.91,0.7653,11.11,4.911
CC(C(=O)N(Cc1ccc(F)cc1)CC(F)(F)F)S(C)(=O)=O (stereo unspecified),1.242,-19.41,4.752,10.96,4.762
CN1C(=O)CC(C(=O)O)C12CCN(Cc1ccc(F)cc1Cl)CC2 (stereo unspecified),-3.553,-15.29,-3.125,20.39,5.394
CC1c2ncc(Cn3cccn3)n2CCN1S(C)(=O)=O (stereo unspecified),17,-31.02,0.8663,-1.98,1.508
Cc1cc(CNC(=O)N2CCN(c3ccccc3)CC2)no1,11.68,-6.632,6.418,13.46,5.882
COCCN(C(=O)c1nc(-c2ccco2)sc1C)C1CC1,-12.25,-15.8,5.455,19.18,1.622
Cc1ccc(OCc2occc2C(=O)N2CCOC(C(=O)O)C2)cc1 (stereo unspecified),6.345,5.584,-0.6289,10.62,-1.786
CC[C@H](C)[C@H](N)C(=O)N1CC(=O)c2sc(Nc3ccc(F)cc3)nc2C1,-0.5667,24.64,0.8434,20,12.43
O=C(CSC1=NS(=O)(=O)c2cc(Cl)ccc2N1)c1ccccc1,14.67,-10.55,-6.983,17.81,5
O=C(Nc1cc(C(F)(F)F)c[nH]c1=O)N1CCOCC1,-4.315,-8.732,1.434,15.38,0
CCCc1nc(C(=O)N2CCN(S(=O)(=O)CC)CC2)cs1,5.161,2.779,8.415,19.78,6.627
Cc1nn(CCCNC(=O)C2CCN(S(C)(=O)=O)CC2)cc1Br,-5.458,-13.8,-31.51,10.11,4.663
COC(=O)C(CNC(=O)Nc1nncs1)Cc1ccc(F)cc1 (stereo unspecified),6.03,-33.88,-6.198,13.33,7.065
CN(C)C(C(=O)NCc1cc(C(C)(C)C)n[nH]1)c1ccc(F)cc1 (stereo unspecified),15.15,-18.08,34.57 and 7.407,13.11,3.004
Cc1c(C(C)NCc2cnn(C)c2)cnn1-c1ccccc1 (stereo unspecified),-30.9,-17.52,3.602,7.5,-8.696
CNC(=O)c1ccc(C2CN(C(=O)COC)CCO2)nc1 (stereo unspecified),0.2528,-13.01,3.01,5.714,3.226
O=C(O)c1ccc(S(=O)(=O)Nc2cccc(CC(F)(F)F)c2)c(F)c1,-8.788,-5.251,6.64,10.26,2.809
CN(CCc1ccccn1)[C@@H]1CCN(c2cc(C(N)=O)ccn2)C[C@H]1O,-2.699,-22.89,9.046,10.96,8.743
COc1ccc(S(=O)(=O)NC(=O)c2ccccc2F)cc1OC,-5.495,-35.51,3.043,7.853,6.952
COCCCC(=O)N(CCC(=O)O)Cc1ccc(F)c(F)c1,-17.51,-18.12,1.453,-4.348,1
Cc1cc(CN2CCN(C(=O)CCc3ccco3)CC2)on1,-0.509,-4.573,-6.659,2.041,0
CC(C)n1cnnc1CN(C)C(=O)Cn1ccc2ccccc2c1=O,13.5,-12.84,1.342,17.24,6.186
c1cncc(-c2c[nH]c([C@@H]3COCCN3Cc3ccncc3)n2)c1,-5.635,-29.97,8.055,27.03,1.493
Clc1ccc(C2(NCc3noc(C4CC4)n3)CCOCC2)cc1,-16.81,-6.805,-4.781,13.7,1.053
COc1ccccc1CC1CCCN(C(=O)c2cc[nH]n2)C1 (stereo unspecified),-2.584,-32.88,0.4348,8.901,3.743
O=C(CCC(=O)NCc1cccc(Br)c1)NCCN1CCCC1,-7.783,-10.66,-6.358,-1.786,1.754
O=C(c1ccnnc1)N1CCN(Cc2cccnc2)c2ncccc2C1,-10.62,-13.34,9.988,0,3.81
CC1(C)CN(C(=O)c2ccc3nncn3c2)CCS1,4.579,-7.213,-1.222,8.824,6.878
COc1c(C2CCCN2Cc2cccc(C(N)=O)c2)c(C)nn1C (stereo unspecified),-19.62,-0.9628,3.15,13.56,5.714
c1ccc(Cc2noc(CN3CCCC3Cn3cccn3)n2)cc1 (stereo unspecified),-15.63,-7.475,5.29,8.696,7.471
COc1cc2cc(C(=O)O)n(C)c2cc1OC,1.204,-22.37,4.98,9.709,-1.639
CC1c2ncc(COCC3CCOCC3)n2CCN1Cc1cccnc1 (stereo unspecified),4.128,-4.175,0.4167,24.79,10.16
COc1ccc(CN2C[C@H]3CC[C@](O)(c4ccc(C)cn4)[C@H]3C2)c(F)c1,-2.483,-46.39,-7.778,5.556,-0.5405
CCc1nc2c(N3CCC4(CC3)CC(=O)N(CC)C4)ncnc2o1,-3.351,12.31,-11.24,19.4,4.255
Cn1nccc1CNC(=O)CCn1nc(C(F)(F)F)cc1C1CC1,-0.6934,12.35,1.84,12.37,1.156
O=C(CCNc1ncccn1)Nc1cc(C(F)(F)F)c[nH]c1=O,-39.76,-11.62,2.864,11.01,6.122
CC(=O)N1CCC2(CC1)CN(C)CC[C@H]2C(F)(F)F,5.114,-33.49,-,15.38,4.908
COCc1cc(N2CCOC(c3ccc(F)cc3)C2)ncn1 (stereo unspecified),-3.894,2.751,-2.99,9.836,3.863
O=C(NCc1nn(-c2ccccc2)c2c1CCC2)NC1CCOCC1,-33.6,-23.8,2.558,18.35,7.059
CCN(CCCc1ccccc1C)S(C)(=O)=O,14.37,-9.082,-5.372,8,8.152
CC(C)NC(=O)C1CCc2nnc(C(C)(C)C)n21 (stereo unspecified),-5.488,-8.791,-7.368,9.655,6.509
CCN(Cc1ccco1)C(=O)NCc1nnc2n1CCC2,-7.409,-6.753,-5.757,19.23,2.5
NCC1[C@H]2CN(Cc3cccc(Cl)c3)C[C@@H]12 (stereo partly specified),-3.996,-29.5,7.593,15.38,6.796
Cc1cnn(CC2CN(Cc3ccc(C(N)=O)cc3)CCO2)c1 (stereo unspecified),-10.8,-2.892,2.452,12.17,2.299
CC(C)(C)NC(=O)[C@@H]1Cc2ccccc2CN1Cc1cccs1,-3.691,-26.25,-4.418,-1.493,5.319
COc1ccc(-c2cnc3n2CCNC32CCN(S(C)(=O)=O)CC2)cc1,0.2791,-6.688,-,3.448,3.797
Cc1ccc(-c2csc(N)c2C#N)cc1,-2.451,-124.9,-3.096,0,-0.5464
O=C(NCC(=O)N1CCCCC1)c1ccoc1,3.44,3.054,2.899,6.25,3.422
NC(=O)CSc1nnc2n1N=CN(c1ccccc1F)C2,1.391,-4.165,-0.4474,19.54,5.155
COc1ccc(C2=CCN(C(=O)CN(C)Cc3ccoc3)CC2)cc1,2.152,10.58,4.627,-1.124,3.008
CCN(C)C(=O)Cn1c(-c2ccco2)nn(-c2ccccc2OC)c1=O,-11.6,-15.29,8.442,9.836,-2.4
Nc1nc(SCc2ccc3c(c2)OCO3)ns1,-6.026,6.488,5.097,0,5.747
CN1C(=O)CC(c2cnn(C)c2)C12CCN(CC1CCOCC1)CC2 (stereo unspecified),2.704,-4.664,1.416,11.54,6.796
O=C(Cc1cccnc1)N1CCCC2(CCN(C3CCOCC3)C2)C1 (stereo unspecified),8.911,-25.05,-0.1631,20.55,1.98
N[C@@H]1CCN(Cc2ccccc2CS(=O)(=O)c2ccccc2)C[C@H]1O,-3.124,-9.992,-2.091,9.677,9.195
CN(C)CCN1CCN(Cc2cccs2)Cc2cccnc21,-20.03,-27.71,-0.7407,5.556,6.542
CCc1nc(CN2CCCN(C(=O)C(C)n3cncn3)CC2)cs1 (stereo unspecified),-6.845,-5.125,1.928,10.96,3.817

Repeated from the top, 5 entries:

- Cc1ccccc1CC(=O)N(C)C1CCCC1 : A: 2.871%; B: -10.32%; C: 3.259%; D: 14.86%; E: 3.396%
- Cc1cccc(CNC(=O)Nc2cc(C(F)(F)F)c[nH]c2=O)n1 : A: -11.15%; B: -20.91%; C: 0.7653%; D: 11.11%; E: 4.911%
- CC(C(=O)N(Cc1ccc(F)cc1)CC(F)(F)F)S(C)(=O)=O (stereo unspecified) : A: 1.242%; B: -19.41%; C: 4.752%; D: 10.96%; E: 4.762%
- CN1C(=O)CC(C(=O)O)C12CCN(Cc1ccc(F)cc1Cl)CC2 (stereo unspecified) : A: -3.553%; B: -15.29%; C: -3.125%; D: 20.39%; E: 5.394%
- CC1c2ncc(Cn3cccn3)n2CCN1S(C)(=O)=O (stereo unspecified) : A: 17%; B: -31.02%; C: 0.8663%; D: -1.98%; E: 1.508%